Experimental findings from US20130196915, “AFFINITY HYDROGELS FOR CONTROLLED PROTEIN RELEASE” (published 2013) are described below.

Chains of the proteins cited; added tags and fusions are not shown. Residues count along the entry.
UniProt P01127, 82-190: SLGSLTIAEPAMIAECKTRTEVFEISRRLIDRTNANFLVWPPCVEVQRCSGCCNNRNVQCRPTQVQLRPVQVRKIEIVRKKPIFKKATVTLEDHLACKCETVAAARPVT

A weaker result is weaker than the reference pair of the same experiment. Construct, isoform or probe ends are uncertain for at least one entry.

In this data set the target is PDGF-BB (Homo sapiens) (UniProt P01127). The data set is described as follows: SPR. The conditions noted are these: purified recombinant protein, protein details: R&D Systems, amine-coupled to SPR chip, single-stranded DNA.

For the sequence “ACAGGCTACGGCACGTAGAGCATCACCATGATCCTGTGACAACACCAAAAT [36-nt aptamer with 15-nt 3' tail]”, the binding result (CO (0-500 nM) accelerates dissociation, sequence assigned to SEQ 22 by length, variant of 36-nt truncated aptamer) is “binds”.
On to “CGCATGCTCAACAGGCTACGGCACGTAGAGCATCACCATGATCCTG [S5]”, for which the binding result (weaker than S1, variant of S1) is “binds more weakly”.
On to “GCCGTTCCAAACAGGCTACGGCACGTAGAGCATCACCATGATCCTG [S7]”, for which, for the setting “weaker than S1, variant of S1”, the binding result is “binds more weakly”.
As to “TGCCATGCCAACAGGCTACGGCACGTAGAGCATCACCATGATCCTG [S8]”, the binding result (weaker than S1, variant of S1) was “binds more weakly”.
